Laboratory results as given in the supplement of paper PMC10849652.
This is one part of the list.

The chains behind the UniProt entries cited, without tags or fusion partners. Where a name states a change or a piece, a line headed by the entry shows the natural chain unless it says otherwise.
UniProt Q9NWX6: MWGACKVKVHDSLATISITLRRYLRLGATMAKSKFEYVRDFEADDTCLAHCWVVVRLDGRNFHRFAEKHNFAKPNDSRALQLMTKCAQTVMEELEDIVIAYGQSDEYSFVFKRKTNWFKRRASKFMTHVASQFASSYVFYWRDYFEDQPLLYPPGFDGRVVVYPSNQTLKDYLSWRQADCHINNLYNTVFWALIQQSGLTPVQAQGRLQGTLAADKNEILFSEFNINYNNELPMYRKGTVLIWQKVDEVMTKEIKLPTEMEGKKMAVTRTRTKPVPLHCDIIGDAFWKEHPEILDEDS
UniProt Q9UDY2: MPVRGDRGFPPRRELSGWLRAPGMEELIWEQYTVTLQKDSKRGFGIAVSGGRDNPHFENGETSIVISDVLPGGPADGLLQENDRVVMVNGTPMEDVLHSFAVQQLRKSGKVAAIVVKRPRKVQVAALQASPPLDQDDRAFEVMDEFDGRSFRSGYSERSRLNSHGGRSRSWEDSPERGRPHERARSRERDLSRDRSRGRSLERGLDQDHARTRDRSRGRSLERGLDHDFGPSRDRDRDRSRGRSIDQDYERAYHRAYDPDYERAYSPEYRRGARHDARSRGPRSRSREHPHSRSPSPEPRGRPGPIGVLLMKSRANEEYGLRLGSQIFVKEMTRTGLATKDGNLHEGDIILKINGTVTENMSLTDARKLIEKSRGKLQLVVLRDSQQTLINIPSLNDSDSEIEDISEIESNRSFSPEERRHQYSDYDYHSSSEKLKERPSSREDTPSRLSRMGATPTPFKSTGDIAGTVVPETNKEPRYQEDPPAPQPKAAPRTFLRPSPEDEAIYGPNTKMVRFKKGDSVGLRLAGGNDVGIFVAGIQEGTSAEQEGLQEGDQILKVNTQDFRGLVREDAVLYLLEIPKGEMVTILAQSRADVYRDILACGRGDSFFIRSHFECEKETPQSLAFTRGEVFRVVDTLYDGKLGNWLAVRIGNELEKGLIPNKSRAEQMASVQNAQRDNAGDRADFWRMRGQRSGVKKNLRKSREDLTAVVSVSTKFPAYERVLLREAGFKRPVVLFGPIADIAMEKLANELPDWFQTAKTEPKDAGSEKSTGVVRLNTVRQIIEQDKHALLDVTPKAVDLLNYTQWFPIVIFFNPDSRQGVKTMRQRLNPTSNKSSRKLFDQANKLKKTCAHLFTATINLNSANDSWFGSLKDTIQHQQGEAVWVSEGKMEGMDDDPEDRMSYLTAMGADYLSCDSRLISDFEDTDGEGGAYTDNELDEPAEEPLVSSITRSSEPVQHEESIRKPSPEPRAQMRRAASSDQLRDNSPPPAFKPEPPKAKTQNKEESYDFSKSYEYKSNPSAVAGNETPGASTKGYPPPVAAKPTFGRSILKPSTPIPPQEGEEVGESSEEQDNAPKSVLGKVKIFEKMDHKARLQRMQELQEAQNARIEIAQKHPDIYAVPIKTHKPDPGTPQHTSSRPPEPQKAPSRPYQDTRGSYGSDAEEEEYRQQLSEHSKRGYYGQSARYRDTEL
UniProt Q15363: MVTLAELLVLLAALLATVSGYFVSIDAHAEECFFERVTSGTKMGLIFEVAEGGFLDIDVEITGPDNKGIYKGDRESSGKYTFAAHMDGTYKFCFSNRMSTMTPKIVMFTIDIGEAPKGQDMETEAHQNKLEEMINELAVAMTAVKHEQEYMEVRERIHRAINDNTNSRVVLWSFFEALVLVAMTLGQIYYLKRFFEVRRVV
UniProt Q7Z7H5: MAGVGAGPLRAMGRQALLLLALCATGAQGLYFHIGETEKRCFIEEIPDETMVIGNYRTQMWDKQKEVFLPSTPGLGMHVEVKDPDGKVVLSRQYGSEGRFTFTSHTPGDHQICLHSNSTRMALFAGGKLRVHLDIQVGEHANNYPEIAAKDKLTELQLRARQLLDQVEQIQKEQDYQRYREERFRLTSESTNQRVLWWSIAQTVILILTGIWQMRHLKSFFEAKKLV
UniProt Q9NX61: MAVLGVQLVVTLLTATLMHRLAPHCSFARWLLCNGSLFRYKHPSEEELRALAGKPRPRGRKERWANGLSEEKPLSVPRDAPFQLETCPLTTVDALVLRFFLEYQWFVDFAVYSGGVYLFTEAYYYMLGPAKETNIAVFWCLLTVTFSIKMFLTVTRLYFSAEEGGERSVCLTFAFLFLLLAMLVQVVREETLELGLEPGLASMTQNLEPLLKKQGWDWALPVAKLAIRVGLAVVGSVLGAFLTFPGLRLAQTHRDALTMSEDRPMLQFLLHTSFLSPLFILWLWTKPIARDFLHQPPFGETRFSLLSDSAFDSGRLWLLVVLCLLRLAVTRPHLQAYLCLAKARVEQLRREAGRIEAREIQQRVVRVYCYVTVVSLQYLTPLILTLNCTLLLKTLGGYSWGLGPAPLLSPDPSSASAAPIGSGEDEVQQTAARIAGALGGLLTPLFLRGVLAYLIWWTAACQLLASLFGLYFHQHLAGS
UniProt Q9BTF0: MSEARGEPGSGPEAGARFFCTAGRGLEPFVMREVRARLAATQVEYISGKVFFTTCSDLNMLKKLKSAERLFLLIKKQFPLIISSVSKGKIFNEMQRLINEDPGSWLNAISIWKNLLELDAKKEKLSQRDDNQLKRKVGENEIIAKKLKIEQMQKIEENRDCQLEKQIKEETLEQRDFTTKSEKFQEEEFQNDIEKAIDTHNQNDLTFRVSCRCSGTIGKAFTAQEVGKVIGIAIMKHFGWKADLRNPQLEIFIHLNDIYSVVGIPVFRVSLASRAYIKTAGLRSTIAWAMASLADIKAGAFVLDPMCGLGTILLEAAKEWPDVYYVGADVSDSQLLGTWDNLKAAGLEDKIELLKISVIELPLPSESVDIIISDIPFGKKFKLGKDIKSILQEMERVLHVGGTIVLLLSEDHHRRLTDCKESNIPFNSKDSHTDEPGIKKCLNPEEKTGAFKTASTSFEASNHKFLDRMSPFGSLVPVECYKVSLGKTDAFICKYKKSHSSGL
UniProt Q9H0V1: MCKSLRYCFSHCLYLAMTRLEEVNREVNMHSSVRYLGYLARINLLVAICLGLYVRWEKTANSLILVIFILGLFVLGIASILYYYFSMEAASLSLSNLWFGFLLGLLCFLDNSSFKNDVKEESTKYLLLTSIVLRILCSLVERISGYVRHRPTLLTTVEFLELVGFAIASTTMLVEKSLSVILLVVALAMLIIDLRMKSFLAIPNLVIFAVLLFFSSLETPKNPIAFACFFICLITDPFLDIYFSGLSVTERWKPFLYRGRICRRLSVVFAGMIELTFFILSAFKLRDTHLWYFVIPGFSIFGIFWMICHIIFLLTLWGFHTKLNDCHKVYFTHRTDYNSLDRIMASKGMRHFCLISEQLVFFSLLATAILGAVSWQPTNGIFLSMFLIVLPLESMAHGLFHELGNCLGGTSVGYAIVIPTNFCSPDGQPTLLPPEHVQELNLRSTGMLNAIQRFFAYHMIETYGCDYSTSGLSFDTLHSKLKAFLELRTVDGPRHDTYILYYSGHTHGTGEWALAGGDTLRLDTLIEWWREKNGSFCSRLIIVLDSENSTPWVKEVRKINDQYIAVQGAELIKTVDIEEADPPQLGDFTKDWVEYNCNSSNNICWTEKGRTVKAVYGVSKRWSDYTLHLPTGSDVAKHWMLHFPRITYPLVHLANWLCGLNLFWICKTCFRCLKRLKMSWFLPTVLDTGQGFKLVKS
UniProt Q07157: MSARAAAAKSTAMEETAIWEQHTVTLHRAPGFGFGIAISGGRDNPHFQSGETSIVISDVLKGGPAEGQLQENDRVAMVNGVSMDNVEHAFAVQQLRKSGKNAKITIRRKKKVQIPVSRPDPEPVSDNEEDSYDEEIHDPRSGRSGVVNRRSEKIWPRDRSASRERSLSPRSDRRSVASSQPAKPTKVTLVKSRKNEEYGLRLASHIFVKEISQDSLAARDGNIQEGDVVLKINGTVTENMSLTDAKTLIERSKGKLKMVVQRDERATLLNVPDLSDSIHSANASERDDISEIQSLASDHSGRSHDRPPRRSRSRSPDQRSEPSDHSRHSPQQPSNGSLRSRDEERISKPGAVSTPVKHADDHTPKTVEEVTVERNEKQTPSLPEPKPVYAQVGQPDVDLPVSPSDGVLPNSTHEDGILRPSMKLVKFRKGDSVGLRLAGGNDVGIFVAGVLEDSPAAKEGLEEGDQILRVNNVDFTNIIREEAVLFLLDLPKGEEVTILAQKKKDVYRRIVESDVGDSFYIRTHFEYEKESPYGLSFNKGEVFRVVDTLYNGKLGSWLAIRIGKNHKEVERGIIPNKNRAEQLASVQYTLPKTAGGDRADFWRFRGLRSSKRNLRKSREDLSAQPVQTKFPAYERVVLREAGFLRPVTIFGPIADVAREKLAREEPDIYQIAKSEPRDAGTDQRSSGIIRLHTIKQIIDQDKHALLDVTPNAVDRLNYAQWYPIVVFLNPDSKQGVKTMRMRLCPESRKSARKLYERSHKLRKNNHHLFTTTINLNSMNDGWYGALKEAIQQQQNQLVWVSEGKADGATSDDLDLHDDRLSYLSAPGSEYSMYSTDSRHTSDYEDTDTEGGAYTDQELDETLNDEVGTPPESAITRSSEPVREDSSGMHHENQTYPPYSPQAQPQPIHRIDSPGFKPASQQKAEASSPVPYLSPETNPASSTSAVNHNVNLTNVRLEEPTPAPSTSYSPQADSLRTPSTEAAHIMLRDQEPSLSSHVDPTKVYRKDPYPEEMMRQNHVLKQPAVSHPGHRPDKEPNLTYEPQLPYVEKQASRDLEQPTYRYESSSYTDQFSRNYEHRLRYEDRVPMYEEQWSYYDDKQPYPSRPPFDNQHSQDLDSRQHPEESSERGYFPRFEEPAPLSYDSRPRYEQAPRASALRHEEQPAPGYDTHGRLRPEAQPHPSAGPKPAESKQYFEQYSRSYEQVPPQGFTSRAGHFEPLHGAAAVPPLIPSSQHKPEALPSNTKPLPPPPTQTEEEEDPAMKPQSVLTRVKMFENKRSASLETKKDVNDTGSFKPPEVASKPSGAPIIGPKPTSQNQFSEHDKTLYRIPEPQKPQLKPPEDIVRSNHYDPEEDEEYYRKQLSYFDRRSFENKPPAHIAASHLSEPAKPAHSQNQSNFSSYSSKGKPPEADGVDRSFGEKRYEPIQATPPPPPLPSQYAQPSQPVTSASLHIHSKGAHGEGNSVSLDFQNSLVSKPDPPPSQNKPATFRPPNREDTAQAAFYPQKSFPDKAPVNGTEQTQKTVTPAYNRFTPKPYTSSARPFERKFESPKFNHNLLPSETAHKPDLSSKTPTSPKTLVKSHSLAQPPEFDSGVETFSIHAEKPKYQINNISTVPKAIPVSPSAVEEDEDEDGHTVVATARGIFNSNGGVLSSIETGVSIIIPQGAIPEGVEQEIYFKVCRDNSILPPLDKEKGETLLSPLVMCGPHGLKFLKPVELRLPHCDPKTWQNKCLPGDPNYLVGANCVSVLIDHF
UniProt Q9HC07: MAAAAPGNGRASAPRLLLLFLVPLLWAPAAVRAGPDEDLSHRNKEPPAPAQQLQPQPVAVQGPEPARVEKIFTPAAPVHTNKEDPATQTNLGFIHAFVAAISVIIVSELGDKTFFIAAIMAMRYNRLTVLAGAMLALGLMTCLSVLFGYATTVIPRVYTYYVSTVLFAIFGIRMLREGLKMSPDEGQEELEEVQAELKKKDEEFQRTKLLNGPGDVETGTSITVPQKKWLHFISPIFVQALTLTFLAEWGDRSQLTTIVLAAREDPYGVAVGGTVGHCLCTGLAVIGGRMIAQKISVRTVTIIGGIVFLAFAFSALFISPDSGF
UniProt O60220: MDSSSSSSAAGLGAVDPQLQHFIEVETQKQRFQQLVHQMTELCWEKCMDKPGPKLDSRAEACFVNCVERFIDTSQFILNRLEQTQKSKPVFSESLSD
UniProt Q9Y584: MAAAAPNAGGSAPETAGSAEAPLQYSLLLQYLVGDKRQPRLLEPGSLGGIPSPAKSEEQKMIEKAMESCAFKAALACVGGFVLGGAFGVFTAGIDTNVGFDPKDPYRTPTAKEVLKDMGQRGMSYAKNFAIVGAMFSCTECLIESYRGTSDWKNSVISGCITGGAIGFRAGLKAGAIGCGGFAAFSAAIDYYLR
UniProt Q9Y5J9: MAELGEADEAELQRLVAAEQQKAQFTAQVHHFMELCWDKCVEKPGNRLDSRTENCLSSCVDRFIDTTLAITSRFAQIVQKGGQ
UniProt Q5T1C6: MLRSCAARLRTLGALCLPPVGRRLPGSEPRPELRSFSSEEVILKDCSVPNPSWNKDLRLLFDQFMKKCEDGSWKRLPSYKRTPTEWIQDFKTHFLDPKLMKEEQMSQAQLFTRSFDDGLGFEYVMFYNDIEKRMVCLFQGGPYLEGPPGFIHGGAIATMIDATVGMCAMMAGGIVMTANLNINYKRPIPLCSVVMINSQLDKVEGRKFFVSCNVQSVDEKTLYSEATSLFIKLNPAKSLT
UniProt Q9Y3A6: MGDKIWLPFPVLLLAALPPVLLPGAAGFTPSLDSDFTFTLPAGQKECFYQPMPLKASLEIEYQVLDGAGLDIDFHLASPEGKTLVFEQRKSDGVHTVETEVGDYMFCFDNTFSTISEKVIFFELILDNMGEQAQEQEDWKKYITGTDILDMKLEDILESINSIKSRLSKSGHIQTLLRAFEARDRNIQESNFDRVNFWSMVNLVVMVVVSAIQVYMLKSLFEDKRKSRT

Tests used:
Test in all cases: log2 fold change, soluble protein after heating vs DMSO (PISA); higher = thermal stabilisation; K562 lysate, 10 uM; active = over 0.2 and 3.5 SD of the protein, either way, in both replicates (recomputed)
erlotinib = compound: C#Cc1cccc(Nc2ncnc3cc(OCCOC)c(OCCOC)cc23)c1 [erlotinib]
Method in brief: (§1)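 K562 pellets were dounce-homogenised in PBS pH 7.4 containing 1 mM MgCl2, and the crude extract, at 1 mg/mL protein, was exposed to 10 μM compound for 30 min. Aliquots were heated for 3 min across 48°C-58°C, pooled, brought to 0.5% NP-40 at 4°C and spun at 21,000xg for 90 min, with the supernatant taken as soluble protein. TMTpro 16plex LC-MS/MS with equalised channel sums quantified that protein. Values are log-two fold changes in thermal stability relative to solvent controls, taken from duplicates.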

[1] = compound: C/C(=N\NC(=O)C1=CC(=CC=C1)S(=O)(=O)N2CCOCC2)/C3=C(C=CC(=C3)Cl)O
Method in brief: as §1

[2] = compound: C1=CC(=CC=C1C2=NC3=C(N2)C=C(C=C3)C(=O)N)OC4=CC=C(C=C4)Cl
Method in brief: as §1

[3] = compound: C1=CC2=C(C=CC(=C2)/C=C\3/C(=O)NC(=NCC4=CC=CS4)S3)N=C1
Method in brief: as §1

[4] = compound: C1=CC2=NC=CN=C2C=C1/C=C/3\C(=O)NC(=O)S3
Method in brief: as §1

[5] = compound: C1=CC=C(C=C1)C2=NC(=C(N2)C3=CC=NC=C3)C4=CC(=C(C=C4)Cl)O
Method in brief: as §1

[6] = compound: C1=CC=C2C(=C1)C3=NNC4=CC=CC(=C43)C2=O
Method in brief: as §1

[7] = compound: C1CCN(C1)C(=O)NC2=CC=CC(=C2)NC3=NC=C(C(=N3)NCCC4=CN=CN4)Br
Method in brief: as §1

[8] = compound: C1CN(CCC1(CC2=CC=C(C=C2)Cl)N)C3=NC=NC4=C3C=CN4
Method in brief: as §1

IRAK-1-4 Inhibitor I = compound: C1COCCN1CCN2C3=CC=CC=C3N=C2NC(=O)C4=CC(=CC=C4)[N+](=O)[O-] [IRAK-1-4 Inhibitor I]
Method in brief: as §1

ibrutinib = compound: C=CC(=O)N1CCC[C@@H](n2nc(-c3ccc(Oc4ccccc4)cc3)c3c(N)ncnc32)C1 [ibrutinib]
Method in brief: as §1

[9] = compound: CC(=O)c1cnc2ccc(-c3cc(Cl)c(O)c(Cl)c3)nc2c1N[C@H]1CC[C@H](CN(C)C)CC1
Method in brief: as §1

ralimetinib = compound: CC(C)(C)Cn1c(N)nc2ccc(-c3[nH]c(C(C)(C)C)nc3-c3ccc(F)cc3)nc21 [ralimetinib]
Method in brief: as §1

[10] = compound: CC(C)(O)CC(=O)NCCn1ccc2ncnc(Nc3ccc(Oc4cccc(C(F)(F)F)c4)c(Cl)c3)c21
Method in brief: as §1

[11] = compound: CC(C)C1=C2N=C(C=C(N2N=C1)NCC3=CC=CC=C3)NCCCCCCN
Method in brief: as §1

[12] = compound: CC1=C(C(CC(=O)N1)C2=CC=C(C=C2)C(F)(F)F)C(=O)NC3=C(C=C4C(=C3)C=NN4)F
Method in brief: as §1

[13] = compound: CC1=C(C2=C(C=C1)C(=O)C3=CC=CC=C3N2CCCN)C
Method in brief: as §1

[14] = compound: CC1=C(C=C(C=C1)NC(=O)C2=CC(=CC=C2)C(C)(C)C#N)NC3=CC4=C(C=C3)N=CN(C4=O)C
Method in brief: as §1

[15] = compound: CC1=C(C=C(C=C1)NC(=O)C2=CC(=CC=C2)N(C)C)NC(=O)C3=CC=C(C=C3)O
Method in brief: as §1

[16] = compound: CC1=CC=C(C=C1)SC2=C3C=C(SC3=CN=C2)C(=O)N
Method in brief: as §1

Measured: log2 fold change

THG1L (UniProt Q9NWX6)
inactive: erlotinib 0.009 | [1] 0.012 | [2] 0.051 | [3] 0.021 | [4] -0.004 | [5] -0.02 | [6] 0.012 | [7] -0.01 | [8] 0.055 | IRAK-1-4 Inhibitor I -0.014 | ibrutinib -0.002 | [9] 0.009 | ralimetinib -0.033 | [10] 0.039 | [11] -0.001 | [12] -0.02 | [13] -0.006 | [14] -0.009 | [15] 0.007 | [16] 0.011

TJP2 isoform 7 (UniProt Q9UDY2)
inactive: erlotinib 0.004 | [1] -0.007 | [2] 0.021 | [3] -0.018 | [4] -0.054 | [5] -0.007 | [6] -0.033 | [7] -0.038 | [8] 0.005 | IRAK-1-4 Inhibitor I -0.005 | ibrutinib 0.018 | [9] -0.013 | ralimetinib 0.023 | [10] -0.026 | [11] 0.017 | [12] 0.017 | [13] -0.061 | [14] -0.001 | [15] 0.018 | [16] 0.012

TMED2 (UniProt Q15363)
inactive: erlotinib -0.005 | [1] -0.007 | [2] -0.051 | [3] 0.032 | [4] -0.007 | [5] 0.023 | [6] -0.094 | [7] -0.013 | [8] 0.008 | IRAK-1-4 Inhibitor I 0.045 | ibrutinib 0.026 | [9] -0.008 | ralimetinib -0.015 | [10] -0.032 | [11] 0.014 | [12] 0.019 | [13] -0.01 | [14] 0.032 | [15] -0.016 | [16] -0.019

TMED4 (UniProt Q7Z7H5)
inactive: erlotinib 0.028 | [1] 0.026 | [2] -0.033 | [3] -0.035 | [4] -0.056 | [5] 0.037 | [6] -0.028 | [7] 0.022 | [8] -0.002 | IRAK-1-4 Inhibitor I 0.031 | ibrutinib 0.035 | [9] 0.041 | ralimetinib -0.008 | [10] -0.07 | [11] -0.022 | [12] 0.019 | [13] -0.02 | [14] -0.064 | [15] -0.056 | [16] 0.019

TMEM161A (UniProt Q9NX61)
inactive: erlotinib 0.144 | [1] -0.038 | [2] -0.089 | [3] 0.105 | [4] -0.102 | [5] 0.065 | [6] -0.03 | [7] -0.071 | [8] 0.177 | IRAK-1-4 Inhibitor I -0.034 | ibrutinib -0.009 | [9] 0.069 | ralimetinib -0.063 | [10] -0.229 | [11] -0.163 | [12] 0.279 | [13] 0.295 | [14] -0.176 | [15] 0.074 | [16] -0.042

THUMPD2 (UniProt Q9BTF0)
inactive: erlotinib -0.013 | [1] 0.05 | [2] -0.034 | [3] -0.051 | [4] -0.007 | [5] -0.029 | [6] -0.004 | [7] 0.002 | [8] 0.031 | IRAK-1-4 Inhibitor I 0.068 | ibrutinib 0.027 | [9] 0.018 | ralimetinib 0.036 | [10] 0.044 | [11] 0.011 | [12] -0.014 | [13] -0.012 | [14] -0.015 | [15] -0.03 | [16] 0.038

TMEM168 (UniProt Q9H0V1)
inactive: erlotinib 0.013 | [1] 0.049 | [2] 0.021 | [3] -0.052 | [4] -0.023 | [5] -0.027 | [6] 0.25 | [7] 0.054 | [8] 0.046 | IRAK-1-4 Inhibitor I 0.042 | ibrutinib 0.089 | [9] -0.019 | ralimetinib 0.026 | [10] -0.01 | [11] -0.032 | [12] 0.077 | [13] -0.076 | [14] 0.044 | [15] -0.025 | [16] 0.006

Retrieved one by one from the entries so far (2):
TMED2 (UniProt Q15363)
inactive: erlotinib -0.005 | [1] -0.007 | [2] -0.051 | [3] 0.032 | [4] -0.007 | [5] 0.023 | [6] -0.094 | [7] -0.013 | [8] 0.008 | IRAK-1-4 Inhibitor I 0.045 | ibrutinib 0.026 | [9] -0.008 | ralimetinib -0.015 | [10] -0.032 | [11] 0.014 | [12] 0.019 | [13] -0.01 | [14] 0.032 | [15] -0.016 | [16] -0.019

TMED4 (UniProt Q7Z7H5)
inactive: erlotinib 0.028 | [1] 0.026 | [2] -0.033 | [3] -0.035 | [4] -0.056 | [5] 0.037 | [6] -0.028 | [7] 0.022 | [8] -0.002 | IRAK-1-4 Inhibitor I 0.031 | ibrutinib 0.035 | [9] 0.041 | ralimetinib -0.008 | [10] -0.07 | [11] -0.022 | [12] 0.019 | [13] -0.02 | [14] -0.064 | [15] -0.056 | [16] 0.019

Remaining list, next part:

TJP1 isoform 2 (UniProt Q07157)
inactive: erlotinib -0.002 | [1] 0 | [2] 0.037 | [3] -0.007 | [4] -0.082 | [5] -0.018 | [6] -0.041 | [7] -0.075 | [8] 0.039 | IRAK-1-4 Inhibitor I 0.015 | ibrutinib 0.019 | [9] -0.001 | ralimetinib -0.007 | [10] -0.041 | [11] 0.036 | [12] 0.002 | [13] -0.025 | [14] 0.015 | [15] 0.016 | [16] -0.014

TMEM165 (UniProt Q9HC07)
inactive: erlotinib 0 | [1] 0.084 | [2] 0.018 | [3] 0.038 | [4] -0.043 | [5] 0.01 | [6] 0.066 | [7] -0.007 | [8] 0.037 | IRAK-1-4 Inhibitor I -0.001 | ibrutinib 0.023 | [9] 0 | ralimetinib -0.008 | [10] 0.017 | [11] 0.042 | [12] -0.042 | [13] -0.036 | [14] 0.034 | [15] 0.019 | [16] 0.001

TIMM8A (UniProt O60220)
inactive: erlotinib 0.177 | [1] 0.023 | [2] -0.012 | [3] -0.085 | [4] -0.056 | [5] -0.025 | [6] -0.031 | [7] 0.086 | [8] 0.007 | IRAK-1-4 Inhibitor I -0.054 | ibrutinib 0.018 | [9] 0 | ralimetinib -0.023 | [10] 0.033 | [11] -0.065 | [12] 0.005 | [13] 0 | [14] 0 | [15] 0 | [16] 0.049

TIPRL (UniProt O75663)
inactive: erlotinib 0.012 | [1] 0.074 | [2] -0.003 | [3] 0.032 | [4] 0 | [5] 0.008 | [6] 0.007 | [7] -0.004 | [8] -0.046 | IRAK-1-4 Inhibitor I -0.007 | ibrutinib 0.019 | [9] 0.018 | ralimetinib 0 | [10] -0.01 | [11] 0.001 | [12] -0.017 | [13] -0.031 | [14] 0.028 | [15] 0.01 | [16] 0.016

TIMM22 (UniProt Q9Y584)
inactive: erlotinib 0.038 | [1] 0.007 | [2] -0.12 | [3] 0.016 | [4] 0.015 | [5] -0.032 | [6] 0.009 | [7] -0.01 | [8] 0.139 | IRAK-1-4 Inhibitor I 0.03 | ibrutinib 0.074 | [9] 0.014 | ralimetinib -0.005 | [10] -0.037 | [11] -0.008 | [12] 0.003 | [13] 0.063 | [14] -0.048 | [15] -0.042 | [16] -0.017

TIMM8B (UniProt Q9Y5J9)
inactive: erlotinib 0.016 | [1] -0.022 | [2] -0.012 | [3] 0.059 | [4] -0.033 | [5] -0.076 | [6] -0.058 | [7] -0.017 | [8] 0.096 | IRAK-1-4 Inhibitor I -0.024 | ibrutinib -0.091 | [9] -0.066 | ralimetinib 0.034 | [10] -0.007 | [11] -0.137 | [12] -0.119 | [13] -0.09 | [14] 0.071 | [15] 0.019 | [16] 0.066

THEM4 (UniProt Q5T1C6)
inactive: erlotinib 0.007 | [1] -0.155 | [2] 0.02 | [3] 0.017 | [4] -0.033 | [5] 0.019 | [6] 0.032 | [7] -0.025 | [8] 0.035 | IRAK-1-4 Inhibitor I -0.004 | ibrutinib 0.016 | [9] 0.046 | ralimetinib 0.041 | [10] -0.006 | [11] -0.034 | [12] -0.009 | [13] -0.018 | [14] 0.043 | [15] -0.031 | [16] -0.024

TLN1 (UniProt Q9Y490)
inactive: erlotinib -0.008 | [1] 0.002 | [2] -0.001 | [3] -0.005 | [4] -0.018 | [5] 0 | [6] 0.02 | [7] -0.002 | [8] -0.009 | IRAK-1-4 Inhibitor I -0.004 | ibrutinib 0.012 | [9] 0 | ralimetinib -0.004 | [10] 0.012 | [11] -0.006 | [12] -0.01 | [13] 0.015 | [14] 0.02 | [15] 0.001 | [16] 0.016

TMED5 (UniProt Q9Y3A6)
inactive: erlotinib 0.014 | [1] -0.003 | [2] -0.067 | [3] -0.007 | [4] 0.008 | [5] -0.072 | [6] 0.021 | [7] 0.025 | [8] -0.01 | IRAK-1-4 Inhibitor I 0.027 | ibrutinib 0.009 | [9] 0.032 | ralimetinib 0.029 | [10] -0.02 | [11] -0.02 | [12] 0.032 | [13] 0.002 | [14] -0.017 | [15] -0.025 | [16] -0.03
